In publication PMC3610895:
Results are given in words; binding and its absence hold for the method and conditions named. Binding seen in cells or lysates may run through a third protein. A result given as binding can be weak or reduced; the word gives no strength.

Protein sequences, listed by entry. Tags and fused reporters are not part of them. Lines headed by an entry give the natural chain unless they say otherwise; changes in a name come on top.
UniProt Q9I7L4: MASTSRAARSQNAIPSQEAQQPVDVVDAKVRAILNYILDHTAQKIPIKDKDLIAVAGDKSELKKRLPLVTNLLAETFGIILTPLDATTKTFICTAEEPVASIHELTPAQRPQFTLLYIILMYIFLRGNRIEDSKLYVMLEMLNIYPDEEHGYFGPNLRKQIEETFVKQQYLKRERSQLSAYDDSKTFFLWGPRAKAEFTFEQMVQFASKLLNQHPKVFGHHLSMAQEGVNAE
UniProt Q9VKV4: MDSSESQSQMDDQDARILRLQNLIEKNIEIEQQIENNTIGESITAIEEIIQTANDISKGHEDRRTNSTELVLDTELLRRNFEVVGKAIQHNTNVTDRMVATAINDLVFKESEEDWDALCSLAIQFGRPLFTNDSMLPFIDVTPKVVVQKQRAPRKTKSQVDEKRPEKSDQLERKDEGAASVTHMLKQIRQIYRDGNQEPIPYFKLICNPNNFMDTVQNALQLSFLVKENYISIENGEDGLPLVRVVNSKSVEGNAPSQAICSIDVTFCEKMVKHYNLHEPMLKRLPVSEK

Assays:
[1] = target: FLAG-tagged Mage (Drosophila melanogaster) (UniProt Q9I7L4); test: co-IP; HA-Nse4 and FLAG-Mage co-expressed in S2 cells; lysate in mild lysis buffer (50 mM Tris, 150 mM NaCl, 1% Triton X-100, pH 8.0); protein G agarose beads pre-bound with antibody, 1 h at 4°C, six washes; immunoblot
[2] = target: HA-tagged Nse4 (Drosophila melanogaster) (UniProt Q9VKV4); test: as above
[3] = target: maltose binding protein (MBP)-fused Mage (Drosophila melanogaster) (UniProt Q9I7L4); test: pull-down; MBP-Mage or MBP immobilized on amylose resin; 35S-labeled in vitro translated probe proteins; 20 mM Tris, 100 mM NaCl, 0.5 mM EDTA, 10% glycerol, 1% Tween-20, pH 7.6, 0.25% BSA, overnight at 4°C; six washes; SDS-PAGE and autoradiography; only the target purified

## HA-tagged Nse4 (from UniProt Q9VKV4)
[1]
  binding: binds

## FLAG-tagged Mage (from UniProt Q9I7L4)
[2]
  binding: binds

B1: 35S-methionine labeled Nse1 (protein, UniProt Q9VMA0 1-235)
chain: MELVKRGFLRACKNHSYLSFELIDDILAPLCANHKTTKPGSKEAIRALVAEINDTISDLGQLLVFIKYPVKAEEYLVYAKTDATPDSVANTGLTAEECQYFSKLLDKIASEEDCHIAWNDAYNDIVLQASSKPLKKSRMQELLQKWIQMGYFMEVTDRIYLGPRSLVELSFYLSSNHADNIKNCTLCKCLVLWDIRCGSCNIQYHRGCIQTYLQRRDICPSCGNLWTTPIRRSIG
modifications: 35S-methionine labeled
[3]
  binding: binds
